# Laboratory results: the supplement of paper PMC9135407
# Values joined by “and” are separate entries in the source; they are usually repeats but may differ in a detail not shown here. Identical values can stand only once. Counter-ions that a name gives are not always drawn. ± gives the standard deviation of the averaged measurements. The list shows a part of the results. Part of the spread comes from offsets between plates or batches.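 Assay uses culture-activated primary human stellate myofibroblasts; lipid droplet recovery indicates inactivation. Measured: proportion of Hoechst-counted cells over a plate-specific Bodipy cutoff, duplicate wells, DMSO and nortriptyline as per-plate negative and positive controls. A hit scores, control-normalized, above the plate's top-tenth-percentile nortriptyline wells or ranks among its three best wells. Final well concentrations not reported.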
# System: primary human hepatic stellate cells (donor 1)
# Experiment: percent Bodipy-positive cells; higher = more lipid droplet accumulation
# Conditions: 48 h
# [1] = library stock concentration: 10 mM
# [2] = library stock concentration: 80 uM
# [3] = library stock concentration: 400 uM
# [4] = library stock concentration: 2 mM
# [5] = library stock concentration: 1 mM
# [6] = library stock concentration: 3.33 mM
structure (smiles),measurement,setting,value
"Cc1cn(-c2cc(NC(=O)c3ccc(C)c(Nc4nccc(-c5cccnc5)n4)c3)cc(C(F)(F)F)c2)cn1 [Nilotinib (AMN107, Tasigna) (10 mM)]",percent Bodipy-positive cells,[1],68.9 ± 23%
Cc1cn(-c2cc(NC(=O)c3ccc(C)c(Nc4nccc(-c5cccnc5)n4)c3)cc(C(F)(F)F)c2)cn1,percent Bodipy-positive cells,[2],15.9 ± 6.1%
same,percent Bodipy-positive cells,[3],9.97 ± 0.65%
same,percent Bodipy-positive cells,[4],19.9 ± 11%
same,percent Bodipy-positive cells,[1],10.9 ± 2.5%
NC(=O)c1ccc(-c2nc(-c3ccccn3)c(-c3ccc4c(c3)OCO4)[nH]2)cc1,percent Bodipy-positive cells,[5],14.8 ± 3.4%
same,percent Bodipy-positive cells,[6],11.2 ± 3.5%
same,percent Bodipy-positive cells,[1],18.4% and 13.2%
same,percent Bodipy-positive cells,library stock concentration: 13 mM,28.8 ± 13%
Cc1cc(O)cc(C)c1Cl [Chloroxylenol],percent Bodipy-positive cells,[1],13.5 ± 1.2%
CC(C)(C)c1ccc(S(=O)(=O)/C=C/C#N)cc1,percent Bodipy-positive cells,[1],16.7 ± 0.43%
Cl.O=C(NCCCN1CCCCCC1)C(c1ccccc1)C1CCCCC1 (configuration not stated),percent Bodipy-positive cells,[1],59.2 ± 5.4%
CC(N)CCCC(C)(C)O (configuration not stated) [Heptaminol hydrochloride],percent Bodipy-positive cells,,28.5 ± 1.3%
same,percent Bodipy-positive cells,[1],42.1 ± 8%
CCCCC[C@H](O)/C=C/[C@@H]1[C@H]2C/C(=C/CCCC(=O)O)C[C@H]2C[C@H]1O [Carbacyclin],percent Bodipy-positive cells,[5],20.2 ± 18%
CN1CCCN=C1/C=C/c1cccc(O)c1 [Oxantel pamoate],percent Bodipy-positive cells,,31.9 ± 4.9%
O=[N+]([O-])c1ccc(CSc2ncnc3c2ncn3[C@@H]2O[C@H](CO)[C@@H](O)[C@H]2O)cc1 [S-(4-Nitrobenzyl)-6-thioinosine],percent Bodipy-positive cells,[1],26.8 ± 3.4%
Cn1cc(CNCC2CCN(c3ncc(C(=O)NO)cn3)CC2)c2ccccc21,percent Bodipy-positive cells,[1],94.3 ± 2%
CC(=O)c1c(C)c2cnc(Nc3ccc(N4CCNCC4)cn3)nc2n(C2CCCC2)c1=O,percent Bodipy-positive cells,[2],13.9 ± 5%
same,percent Bodipy-positive cells,[3],8.26 ± 0.43%
same,percent Bodipy-positive cells,[4],8.05 ± 5.8%
same,percent Bodipy-positive cells,[6],26.2 ± 19%
Clc1ccc2c(N3CCN(CCCN4CCN(c5ccnc6cc(Cl)ccc56)CC4)CC3)ccnc2c1 [Piperaquine tetraphosphate tetrahydrate],percent Bodipy-positive cells,[1],71.6 ± 3.5%
"CCCCCCCCCCCCC/C=C/[C@@H](O)[C@H](CO)N(C)C [N,N-Dimethylsphingosine]",percent Bodipy-positive cells,[5],84.2 ± 6.3%
C[C@H]1[C@H](C)CC[C@]2(C(=O)O[C@@H]3O[C@H](CO[C@@H]4O[C@H](CO)[C@@H](O[C@@H]5O[C@H](C)[C@H](O)[C@@H](O)[C@H]5O)[C@H](O)[C@H]4O)[C@@H](O)[C@H](O)[C@H]3O)CC[C@]3(C)C(=CC[C@@H]4[C@@]5(C)C[C@@H](O)[C@H](O)[C@@](C)(CO)[C@@H]5CC[C@]43C)[C@H]12 [Asiaticoside],percent Bodipy-positive cells,,7.77 ± 3.2%
"Cc1c(O)c(=O)n(-c2ccccc2)n1C [Antipyrine, 4-hydroxy]",percent Bodipy-positive cells,,26.8 ± 6.5%
CC(C)OC(=O)C(C)(C)Oc1ccc(C(=O)c2ccc(Cl)cc2)cc1 [Fenofibrate],percent Bodipy-positive cells,,23.8 ± 4.7%
same,percent Bodipy-positive cells,[5],10.1 ± 0.88%
same,percent Bodipy-positive cells,[6],10.6 ± 3.5%
CC(C)OC(=O)C(C)(C)Oc1ccc(C(=O)c2ccc(Cl)cc2)cc1,percent Bodipy-positive cells,[1],59.6 ± 7.3%
OCCOc1ccc(/C(=C(/CCCl)c2ccccc2)c2ccccc2)cc1 [Ospemifene],percent Bodipy-positive cells,[6],20.3 ± 0.64%
same,percent Bodipy-positive cells,[1],51.8 ± 3%
CCCCCCCC/C=C\CCCCCCCC(=O)OCC [Oleic Acid ethyl ester],percent Bodipy-positive cells,[5],19.4 ± 5.6%
COc1cc2c(cc1OC)-c1[nH]nc(Nc3cccc(F)c3)c1C2 [PDGF Receptor Tyrosine Kinase Inhibitor IV],percent Bodipy-positive cells,[6],39.2 ± 3.8%
COc1cc2c(cc1OC)-c1[nH]nc(Nc3cccc(F)c3)c1C2,percent Bodipy-positive cells,[2],14.6 ± 7.6%
same,percent Bodipy-positive cells,[3],15.3 ± 6.2%
same,percent Bodipy-positive cells,[5],20.4 ± 4.8%
same,percent Bodipy-positive cells,[4],27 ± 7.7%
same,percent Bodipy-positive cells,[1],60.4 ± 5.7%
Cn1cc(/C=C2\C(=O)Nc3cccnc32)c2ccccc21,percent Bodipy-positive cells,[3],21.5 ± 16%
same,percent Bodipy-positive cells,[4],12.8 ± 0.48%
same,percent Bodipy-positive cells,[1],7.7% and 21.3%
Cc1ccc(NC(=O)C2(c3ccc4c(c3)OC(F)(F)O4)CC2)nc1-c1cccc(C(=O)O)c1 [VX-809 (Lumacaftor)],percent Bodipy-positive cells,[6],7.02 ± 1.5%
same,percent Bodipy-positive cells,[1],17.3 ± 0.32%
CNCc1ccc(-c2[nH]c3cc(F)cc4c3c2CCNC4=O)cc1.O=P(O)(O)O,percent Bodipy-positive cells,[1],94 ± 2.2%
CC(=NNC(=S)N1CCC1)c1ccccn1,percent Bodipy-positive cells,[6],53.6 ± 5.4%
same,percent Bodipy-positive cells,[1],68.9 ± 8.8%
CN(C)CCCN1c2ccccc2CCc2ccc(Cl)cc21.Cl [Clomipramine hydrochloride],percent Bodipy-positive cells,[1],77.8 ± 2.9%
Cc1cc2c(s1)Nc1ccccc1N=C2N1CCN(C)CC1 [Olanzapine],percent Bodipy-positive cells,[6],44.3 ± 6.5%
same,percent Bodipy-positive cells,library stock concentration: 6.4 mM,27.4% and 14.9%
same,percent Bodipy-positive cells,[1],37.8 ± 3.9%
Cc1cc2c(s1)Nc1ccccc1N=C2N1CCN(C)CC1,percent Bodipy-positive cells,library stock concentration: 9.9 mM,38.1 ± 7.7%
